In article doi:10.1101/2022.10.27.514150:
Where two headings read alike, the source gives them in different places. Results are given in words; binding and its absence hold for the method and conditions named. Binding seen in cells or lysates may run through a third protein. Some entries that bind do so weakly or less than the wild type. For some of these results: Where a sequence is shown, tags or fusion partners need not be part of it. Values belong to the substance of their own block, whether it stands above or below them.

Amino acid sequences for entries named in this document (tags omitted). A change or cut given only in a name is not applied to a line headed by its entry. Residues count along the entry.
UniProt Q16254, whole entry: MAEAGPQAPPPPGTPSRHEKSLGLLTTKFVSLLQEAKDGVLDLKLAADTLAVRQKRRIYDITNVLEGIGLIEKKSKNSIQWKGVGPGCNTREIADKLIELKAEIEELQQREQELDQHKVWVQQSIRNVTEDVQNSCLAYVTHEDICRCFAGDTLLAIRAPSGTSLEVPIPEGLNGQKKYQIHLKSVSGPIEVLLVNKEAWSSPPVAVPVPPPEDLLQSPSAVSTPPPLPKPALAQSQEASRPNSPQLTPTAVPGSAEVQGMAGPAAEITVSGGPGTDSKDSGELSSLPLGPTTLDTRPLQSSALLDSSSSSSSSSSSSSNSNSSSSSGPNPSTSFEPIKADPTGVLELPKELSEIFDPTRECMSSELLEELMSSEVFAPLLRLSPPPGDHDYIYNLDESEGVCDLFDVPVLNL
UniProt Q14186, 199-350: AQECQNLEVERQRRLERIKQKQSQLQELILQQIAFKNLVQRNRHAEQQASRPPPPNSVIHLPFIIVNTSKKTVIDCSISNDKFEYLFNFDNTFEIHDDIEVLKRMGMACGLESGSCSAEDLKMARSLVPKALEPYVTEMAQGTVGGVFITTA

What was measured:
[1] = target: 6xHis-E2F4 (84-413) (human) (UniProt Q16254); assay: pull-down
HA-ΔNp73α [2] = target: T1, HA-ΔNp73α (UniProt O15350); assay: co-IP
T1 sequence: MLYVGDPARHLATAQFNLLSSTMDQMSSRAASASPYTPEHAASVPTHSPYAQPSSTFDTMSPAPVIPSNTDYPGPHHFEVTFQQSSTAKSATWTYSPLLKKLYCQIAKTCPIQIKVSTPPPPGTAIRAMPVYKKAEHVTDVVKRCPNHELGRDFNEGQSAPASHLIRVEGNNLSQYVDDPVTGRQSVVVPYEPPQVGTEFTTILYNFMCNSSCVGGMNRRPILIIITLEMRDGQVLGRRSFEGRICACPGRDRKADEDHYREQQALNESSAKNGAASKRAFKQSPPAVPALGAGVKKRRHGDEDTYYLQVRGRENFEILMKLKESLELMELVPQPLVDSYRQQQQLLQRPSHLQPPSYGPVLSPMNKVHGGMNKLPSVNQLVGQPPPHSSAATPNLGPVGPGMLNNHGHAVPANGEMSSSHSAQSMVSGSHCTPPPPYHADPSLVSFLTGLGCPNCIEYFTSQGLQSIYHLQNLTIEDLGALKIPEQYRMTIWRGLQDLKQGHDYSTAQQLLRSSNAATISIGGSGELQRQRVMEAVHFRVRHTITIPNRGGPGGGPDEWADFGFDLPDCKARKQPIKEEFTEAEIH

HA-ΔNp73α [3] = target: T1, HA-ΔNp73α; assay: co-IP; remark: listed apart in the source
[4] = target: T2, endogenous ΔNp73α (HNC-136) (human (endogenous in HNC-136)) (UniProt O15350); assay: co-IP
T2 sequence: T1 sequence

binding [1]: binds
Substance: GST-DP1(199-350) (from UniProt Q14186 199-350) (domain or fragment)

binding (HA-ΔNp73α [2]): binds
binding (HA-ΔNp73α [3]): binds
Substance: endogenous E2F4 (38HK) (from UniProt Q16254 1-413)

binding [4]: binds
Substance: endogenous E2F4 (HNC-136) (from UniProt Q16254 1-413)
